Test results as given in publication PMC8255318.
These are yes or no findings as the source states them, for the method shown. Binding seen in cells or lysates may run through a third protein. Some binding calls cover weakened binding; strength is not graded here.

The chains behind the UniProt entries cited, without tags or fusion partners.
UniProt Q04206: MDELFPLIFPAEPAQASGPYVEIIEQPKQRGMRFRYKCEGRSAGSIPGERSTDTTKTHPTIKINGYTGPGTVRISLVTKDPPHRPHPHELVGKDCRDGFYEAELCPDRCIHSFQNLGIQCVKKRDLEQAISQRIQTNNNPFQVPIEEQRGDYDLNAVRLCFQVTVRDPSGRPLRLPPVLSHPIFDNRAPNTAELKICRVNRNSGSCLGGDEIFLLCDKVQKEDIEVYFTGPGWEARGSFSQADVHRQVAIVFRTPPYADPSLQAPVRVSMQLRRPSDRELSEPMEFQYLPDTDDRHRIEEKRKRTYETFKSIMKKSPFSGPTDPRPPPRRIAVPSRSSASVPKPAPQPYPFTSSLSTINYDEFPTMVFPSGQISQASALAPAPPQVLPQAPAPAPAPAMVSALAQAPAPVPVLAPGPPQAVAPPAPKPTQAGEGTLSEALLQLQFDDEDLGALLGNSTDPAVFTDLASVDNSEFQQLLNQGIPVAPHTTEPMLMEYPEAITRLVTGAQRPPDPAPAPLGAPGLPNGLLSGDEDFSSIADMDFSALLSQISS

Biological target: T1, Kinectin 1 (KTN1) (human) (UniProt Q86UP2)
T1 sequence: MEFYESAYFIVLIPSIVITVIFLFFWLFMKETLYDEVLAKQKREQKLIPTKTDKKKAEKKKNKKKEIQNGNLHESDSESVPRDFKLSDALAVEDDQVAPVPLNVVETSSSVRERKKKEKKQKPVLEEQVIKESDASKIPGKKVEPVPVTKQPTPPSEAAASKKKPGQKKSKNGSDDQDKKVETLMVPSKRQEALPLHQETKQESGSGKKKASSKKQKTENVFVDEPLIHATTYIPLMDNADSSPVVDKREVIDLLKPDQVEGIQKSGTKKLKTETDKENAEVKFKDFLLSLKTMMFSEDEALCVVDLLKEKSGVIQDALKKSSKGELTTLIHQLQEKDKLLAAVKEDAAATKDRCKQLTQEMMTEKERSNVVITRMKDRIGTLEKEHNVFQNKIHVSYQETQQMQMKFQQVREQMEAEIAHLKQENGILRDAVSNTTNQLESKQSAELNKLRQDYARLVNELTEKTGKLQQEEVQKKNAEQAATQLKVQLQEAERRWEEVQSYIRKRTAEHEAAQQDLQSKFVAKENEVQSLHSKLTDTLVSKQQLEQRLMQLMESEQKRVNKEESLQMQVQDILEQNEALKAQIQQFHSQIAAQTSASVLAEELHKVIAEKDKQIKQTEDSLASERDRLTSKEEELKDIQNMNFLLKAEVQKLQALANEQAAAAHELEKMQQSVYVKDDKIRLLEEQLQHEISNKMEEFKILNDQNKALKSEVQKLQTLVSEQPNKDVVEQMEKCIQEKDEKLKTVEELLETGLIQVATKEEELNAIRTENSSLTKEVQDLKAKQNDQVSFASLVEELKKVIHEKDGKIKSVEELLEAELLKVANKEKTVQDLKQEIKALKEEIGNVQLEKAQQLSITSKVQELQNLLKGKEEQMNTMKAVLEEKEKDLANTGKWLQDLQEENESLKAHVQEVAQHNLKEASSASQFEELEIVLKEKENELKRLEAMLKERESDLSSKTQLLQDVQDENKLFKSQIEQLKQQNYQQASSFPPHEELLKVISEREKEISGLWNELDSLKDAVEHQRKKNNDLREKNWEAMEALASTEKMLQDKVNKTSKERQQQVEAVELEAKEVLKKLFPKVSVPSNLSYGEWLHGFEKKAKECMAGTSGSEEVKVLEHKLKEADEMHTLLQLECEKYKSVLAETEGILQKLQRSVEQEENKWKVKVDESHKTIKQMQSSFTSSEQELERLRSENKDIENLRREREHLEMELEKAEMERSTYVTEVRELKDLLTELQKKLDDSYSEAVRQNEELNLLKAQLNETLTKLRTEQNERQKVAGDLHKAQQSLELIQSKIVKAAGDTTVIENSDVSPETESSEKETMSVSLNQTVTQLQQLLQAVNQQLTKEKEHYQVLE
Assay: co-IP; MDA-MB-231 and BT-549 lysates (nucleus and cytoplasm) from cells with KTN1 overexpression or negative control vector; Pierce Co-Immunoprecipitation Kit; 20 µg total-KTN1 antibody, 1 µg normal mouse IgG as negative control; Western blot detection

With NF-κB/p65 (from UniProt Q04206 1-551) the binding was “binds”.
